# Measured values taken from paper PMC9761386.
# Amino acid sequences for entries named in this document (tags omitted). Residues count along the entry.
# UniProt Q9EP73, residues 19-290: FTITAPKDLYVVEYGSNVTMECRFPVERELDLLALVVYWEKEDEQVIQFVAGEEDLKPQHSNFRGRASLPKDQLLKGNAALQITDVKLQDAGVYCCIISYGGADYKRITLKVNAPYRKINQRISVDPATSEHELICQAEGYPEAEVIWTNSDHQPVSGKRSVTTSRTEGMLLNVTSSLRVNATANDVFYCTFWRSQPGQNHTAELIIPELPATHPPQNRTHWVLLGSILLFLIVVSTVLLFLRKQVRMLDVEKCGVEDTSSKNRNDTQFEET
# UniProt Q8VI36: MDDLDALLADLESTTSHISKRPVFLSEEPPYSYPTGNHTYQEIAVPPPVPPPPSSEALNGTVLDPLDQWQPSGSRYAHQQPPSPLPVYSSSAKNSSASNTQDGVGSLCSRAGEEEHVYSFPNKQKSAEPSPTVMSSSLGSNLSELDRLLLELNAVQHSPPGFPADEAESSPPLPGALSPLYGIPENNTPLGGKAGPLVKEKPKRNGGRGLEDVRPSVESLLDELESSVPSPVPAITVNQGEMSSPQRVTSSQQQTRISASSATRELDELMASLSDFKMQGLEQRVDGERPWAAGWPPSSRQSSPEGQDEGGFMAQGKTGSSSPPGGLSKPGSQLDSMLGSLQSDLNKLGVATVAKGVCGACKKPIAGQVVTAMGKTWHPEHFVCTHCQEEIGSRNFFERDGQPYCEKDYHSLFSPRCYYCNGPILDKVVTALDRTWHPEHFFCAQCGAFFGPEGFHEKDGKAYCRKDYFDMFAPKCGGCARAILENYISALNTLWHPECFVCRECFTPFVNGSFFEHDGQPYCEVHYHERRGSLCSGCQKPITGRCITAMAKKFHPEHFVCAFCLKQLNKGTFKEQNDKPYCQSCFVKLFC
# UniProt P42227: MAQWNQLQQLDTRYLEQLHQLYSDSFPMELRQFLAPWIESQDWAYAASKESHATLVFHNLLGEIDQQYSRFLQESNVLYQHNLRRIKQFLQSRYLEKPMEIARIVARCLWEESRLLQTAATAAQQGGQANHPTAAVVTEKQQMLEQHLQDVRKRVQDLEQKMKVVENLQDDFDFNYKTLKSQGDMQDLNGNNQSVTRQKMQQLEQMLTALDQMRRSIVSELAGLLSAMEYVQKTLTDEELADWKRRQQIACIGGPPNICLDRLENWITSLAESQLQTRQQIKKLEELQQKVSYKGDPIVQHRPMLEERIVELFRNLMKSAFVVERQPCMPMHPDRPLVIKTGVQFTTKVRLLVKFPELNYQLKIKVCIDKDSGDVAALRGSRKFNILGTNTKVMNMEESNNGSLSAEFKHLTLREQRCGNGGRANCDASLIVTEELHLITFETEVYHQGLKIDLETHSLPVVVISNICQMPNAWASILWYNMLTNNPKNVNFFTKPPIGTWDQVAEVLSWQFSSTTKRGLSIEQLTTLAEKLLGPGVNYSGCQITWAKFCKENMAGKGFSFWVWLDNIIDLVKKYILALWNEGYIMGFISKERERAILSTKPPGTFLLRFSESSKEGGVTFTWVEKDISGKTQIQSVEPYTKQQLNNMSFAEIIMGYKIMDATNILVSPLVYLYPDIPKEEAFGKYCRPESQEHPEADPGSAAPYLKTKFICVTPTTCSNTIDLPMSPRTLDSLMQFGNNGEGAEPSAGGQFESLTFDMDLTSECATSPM
# No constants are given. Whether binding was seen depends on the method and setting. Binding seen in cells or lysates may run through a third protein. Some binding calls cover weakened binding; strength is not graded here.
# Biological target: WT PD-L1 (programmed death ligand 1) tagged with GFP (mouse) (UniProt Q9EP73)
# Assay: co-IP; PD-L1-GFP precipitated from SVEC4-10 lysate with GST-tagged anti-GFP nanobody on GST beads, Western blot; cells untreated or treated with sodium fluoride (1 mM), sodium vanadate (0.5 mM), TNFα (100 ng/ml), IFNα (500 U/ml) or both cytokines, 30 min or overnight
row,Substance,binding
1,Paxillin (from UniProt Q8VI36 1-591),binds
2,STAT3 phosphorylated on Ser727 (from UniProt P42227 1-770),binds
3,STAT3 phosphorylated on Tyr705 (from UniProt P42227 1-770),binds
4,Signal transducer and activator of transcription 3 (from UniProt P42227 1-770),binds
